# PubChem BioAssay AID504327 (National Center for Advancing Translational Sciences (NCATS), 2011)
# By UniProt entry, the sequences of proteins in these tests, tags left out.
# UniProt Q92830, whole entry, looked up: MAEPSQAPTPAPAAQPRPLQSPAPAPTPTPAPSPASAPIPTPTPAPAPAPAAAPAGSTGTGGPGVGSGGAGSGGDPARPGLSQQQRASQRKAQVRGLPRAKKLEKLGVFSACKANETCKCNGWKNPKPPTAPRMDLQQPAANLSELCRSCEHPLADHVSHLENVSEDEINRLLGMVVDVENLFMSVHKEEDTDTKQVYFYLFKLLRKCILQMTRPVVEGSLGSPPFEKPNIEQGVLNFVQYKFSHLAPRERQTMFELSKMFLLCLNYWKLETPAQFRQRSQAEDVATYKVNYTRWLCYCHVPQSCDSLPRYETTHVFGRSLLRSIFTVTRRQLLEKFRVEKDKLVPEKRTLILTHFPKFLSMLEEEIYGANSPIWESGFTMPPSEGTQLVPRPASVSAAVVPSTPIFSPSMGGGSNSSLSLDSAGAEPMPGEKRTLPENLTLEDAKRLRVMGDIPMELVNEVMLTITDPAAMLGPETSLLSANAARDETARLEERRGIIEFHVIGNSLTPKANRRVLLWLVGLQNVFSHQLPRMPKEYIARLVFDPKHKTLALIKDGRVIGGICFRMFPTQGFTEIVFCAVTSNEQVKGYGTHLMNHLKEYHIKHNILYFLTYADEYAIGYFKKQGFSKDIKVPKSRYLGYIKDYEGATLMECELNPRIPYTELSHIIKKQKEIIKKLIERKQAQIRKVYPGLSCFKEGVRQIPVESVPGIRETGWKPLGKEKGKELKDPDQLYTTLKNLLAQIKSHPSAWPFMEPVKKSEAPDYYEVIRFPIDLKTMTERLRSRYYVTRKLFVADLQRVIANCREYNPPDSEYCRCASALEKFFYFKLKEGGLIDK
# Where “and” joins values, the source holds several entries; their conditions need not be identical. Equal values may be shown once. The whole screen tested about 390,000 compounds, of which about 820 (0.21%) were called active. Inconclusive results, whose numbers are uncertain, are shown with a selection of clear calls. The call rests on the fitted dose curve; in most records, active means well fitted inhibition curve with a large enough effect; inconclusive means small, poorly fitted or top-dose-only effect, or another doubt; inactive means no such curve, though single readings can be large or run the other way. Where the call is inconclusive, the potency comes from a doubtful curve fit.
# Biological target: Histone acetyltransferase KAT2A (Homo sapiens) (UniProt Q92830)
# Experiment: qHTS Assay for Inhibitors of GCN5L2
# Conditions: GCN5L2 HAT assay, ThioGlo1 CoA-SH fluorescence; series mostly up to 58.9 µM
# In short: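 ThioGlo1-coupled HAT assay: 20nM GCN5L2, 70uM acetyl-CoA, 75uM H3(1-25) peptide, pH 7.5. Fluorescence read at 340/540nm at start and after 20 min at room temperature.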
# Potency means the concentration at half of the fitted maximal effect.
row,Structure (SMILES),Potency
1,COc1cc(C2c3[nH]c4ccccc4c3C[C@H]3C(=O)N(C4CC4)CC(=O)N23)ccc1OC(C)C (stereo not given in full),"inconclusive: 39.8 µM [inhibitor, single point]"
2,CC(=O)Nc1nc(SCC(=O)NCc2ccc(F)cc2)[nH]c(=O)c1NC(=O)c1cccs1,"inconclusive: 0.794 µM [inhibitor, single point]"
3,O=C1ON=C(c2ccc(Cl)cc2)/C1=C/c1ccc(O)cc1,"inconclusive: 31.6 µM [inhibitor, partial curve]"
4,COc1cccc(/C=N/NC(=O)c2c(C)nc3ccc(Br)cn23)c1O,"inconclusive: 39.8 µM [inhibitor, single point]"
5,Cc1cnc(C(=O)N2CCCC(C(=O)c3ccc(C(C)(C)C)cc3)C2)cn1 (stereo not given),inactive
6,O=C(COc1ccccc1Cl)c1ccc2c(c1)CCCC2,"inconclusive: 0.708 µM [inhibitor, single point]"
7,CCCc1cc(=O)[nH]c(SCC(=O)Nc2ccc3c(c2)CCC3)n1,"inconclusive: 25.1 µM [inhibitor, partial curve]"
8,CC(C)(C)NC(=O)Nc1ccc2nccnc2c1,"inconclusive: 31.6 µM [inhibitor, partial curve]"
9,Cc1cc(N)ccc1NC(=O)c1ccccc1,"inconclusive: 39.8 µM [inhibitor, single point]"
10,Cc1cccc(N2CCN(C(=O)CCS(=O)(=O)c3ccc4c(c3)CC(=O)N4C)CC2C)c1 (stereo not given),inactive
11,CCOC(=O)c1c(-c2ccc(C)cc2)csc1NC1=NS(=O)(=O)c2ccccc21,inactive
12,CC(C)(C)C1CCc2c(sc(NC(=O)c3cccs3)c2C(N)=O)C1 (stereo not given),"inconclusive: 31.6 µM [inhibitor, single point]"
13,CCCCN(CC)CCCNC(=O)c1cc2cc3ccc(OC)cc3nc2o1,"inconclusive: 0.794 µM [inhibitor, single point]"
14,Cc1ccc(Cl)c(Nc2ccccc2C(=O)O)c1Cl,"inconclusive: 7.94 µM [inhibitor, full curve, poor fit] and inconclusive: 35.5 µM [inhibitor, single point]"
15,COc1cccc(CN(C(=O)Cc2c[nH]c3ccccc23)C(C(=O)NC2CCCCC2)c2ccc(C)o2)c1 (stereo not given),inactive
16,Cc1c(CNC2CCCCCC2)c(C(=O)O)c(C)n1Cc1cccc(Cl)c1,inactive
17,CN(CC(=O)Nc1ccccc1Cl)C(=O)CSc1nnc(-c2ccco2)o1,"inconclusive: 39.8 µM [inhibitor, single point]"
18,CCc1nnc(NC(=O)C(=O)NCCOC(=O)c2ccccc2Cl)s1,active: 3.16 µM
19,CCC(C)(C)n1nnnc1C(c1ccc(F)cc1)N1CCC(C(N)=O)CC1 (stereo not given),"inconclusive: 0.794 µM [inhibitor, single point]"
20,C=C1CN(CC(=O)OC)S(=O)(=O)c2ccccc21,inactive
21,CCCCOc1ccc(C(=O)Nc2cc(-c3cn4cccnc4n3)ccc2OC)cc1,inactive
22,CCOc1ccc(C(=O)Nc2ccc(C(=O)N3CCOCC3)cc2)c(OCC)c1,"inconclusive: 0.141 µM [inhibitor, full curve, poor fit]"
23,NC(C(=O)O)C(O)c1ccc(O)c(O)c1 (stereo not given),active: 14.1 µM

row,Structure (SMILES),Potency
1,Cc1nc(Nc2ccccc2)sc1C,inactive
2,N=C1/C(=C\c2ccc(SCc3ccccc3)o2)C(=O)N=C2SC=NN12,"inconclusive: 31.6 µM [inhibitor, single point]"
3,S=c1nc2ccccc2c2nc(-c3ccccc3Br)[nH]n12,"inconclusive: 0.631 µM [inhibitor, full curve]"
4,Cc1ccc(OCCCCn2c(-c3ccc(Cl)cc3)nc3ccccc3c2=O)cc1,inactive
5,COc1ccc(C)cc1Nc1nc(-c2ccccc2O)nc2ccccc12,"inconclusive: 25.1 µM [inhibitor, single point]"
6,COc1ccccc1CCn1c(=O)c(-c2cn(C)c3ccccc23)nc2cncnc21,inactive
7,COc1ccc(OC)c(NC(=O)NC2(C(F)(F)F)Oc3ccccc3O2)c1,"inconclusive: 0.126 µM [inhibitor, full curve, poor fit]"
8,Cc1c(-c2ccccc2)c(=O)oc2c(CN3CCOCC3)c(O)ccc12,"inconclusive: 39.8 µM [inhibitor, single point]"
9,CC(=O)Nc1cccc(OCC(O)Cn2cnc3ccccc32)c1 (stereo not given),inactive
10,CC(C)(C)N1CC(C(=O)O)CC1=O (stereo not given),"inconclusive: 39.8 µM [inhibitor, single point]"
11,Cc1ccc(C(C[N+](=O)[O-])Sc2ccc(N)cc2)cc1 (stereo not given),inactive
12,COc1ccc(N2CCN(c3oc(Cc4ccccc4)nc3C#N)CC2)cc1,"inconclusive: 3.98 µM [inhibitor, full curve, poor fit]"
13,O=C(NC1CC1)c1ccc(CS(=O)c2ccccc2)o1 (stereo not given),"inconclusive: 7.08 µM [inhibitor, single point]"
14,COc1ccccc1C(=O)NNC(=O)C1CC=CCC1 (stereo not given),"inconclusive: 39.8 µM [inhibitor, single point]"
15,COc1ccc(/C=C/C(=O)c2ccc(Cl)s2)cc1O,inactive
16,O=C(NCc1ccccn1)Nc1cccc(Cl)c1Cl,"inconclusive: 2.82 µM [inhibitor, partial curve, poor fit]"
17,N#C/C(=C\c1ccc(C(=O)O)cc1)c1nc2sc3c(c2c(=O)[nH]1)CCCC3,"inconclusive: 12.6 µM [inhibitor, partial curve]"
18,CCOC(=O)N1CCN(C(=O)c2ccccc2SCC(=O)NCC2CCCCC2)CC1,"inconclusive: 25.1 µM [inhibitor, single point]"
19,CN(c1ccc(OCC(=O)N2CCC(C(N)=O)CC2)cc1)S(=O)(=O)c1cccs1,"inconclusive: 35.5 µM [inhibitor, single point]"
20,Cc1cc(NS(=O)(=O)c2ccc(C(C)C)cc2)no1,"inconclusive: 11.2 µM [inhibitor, partial curve, poor fit]"
21,CN1CCN(NC(=O)c2cccs2)CC1,"inconclusive: 39.8 µM [inhibitor, single point]"
22,COc1cc2cc3c4cc(OC)c(OC)cc4cc[n+]3c(C)c2cc1OC,"inconclusive: 39.8 µM [inhibitor, single point]"

# Retrieved by compound from the entries so far (two):
row,Structure (SMILES),Potency
14,COc1ccccc1C(=O)NNC(=O)C1CC=CCC1 (stereo not given),"inconclusive: 39.8 µM [inhibitor, single point]"
15,COc1ccc(/C=C/C(=O)c2ccc(Cl)s2)cc1O,inactive
